# Test results as given in PMC11551737, “Structural and functional insights into the interaction between the bacteriophage T4 DNA processing proteins gp32 and Dda” (Nucleic Acids Research, 2024).
# Test system: gp32 His-tagged + Dda-K38A
# Test: gel filtration
# Conditions: gel filtration: 20 mM Tris-HCl pH 7.0, 200 mM NaCl (50 mM for crystallization), 0.5 mM EDTA, 5 mM 2-mercaptoethanol, recombinant protein, protein details: N-terminal 6xHis,6xHis (stated for SPR), single-stranded DNA
Sequence,"binding result (separate gp32 and Dda peaks, ternary complex not formed (binding of each protein alone not assessed))",binding result (complex begins to appear)
TTTTTTTTTT [dT10],no binding,–
TTTTTTTTTTTT [dT12],–,binds more weakly

# Construct, isoform or probe ends are uncertain for at least one entry. No signal at the amounts used counts as a negative. Weaker means in comparison with the reference protein, sequence or condition of that experiment.
